Laboratory results: publication PMC12891039
Results are given in words; binding and its absence hold for the method and conditions named. Binding seen in cells or lysates may run through a third protein. Binding can be weak; no strength is given.

Protein sequences, listed by entry. Tags and fused reporters are not part of them. Lines headed by an entry give the natural chain unless they say otherwise; changes in a name come on top.
UniProt Q9Z2G6: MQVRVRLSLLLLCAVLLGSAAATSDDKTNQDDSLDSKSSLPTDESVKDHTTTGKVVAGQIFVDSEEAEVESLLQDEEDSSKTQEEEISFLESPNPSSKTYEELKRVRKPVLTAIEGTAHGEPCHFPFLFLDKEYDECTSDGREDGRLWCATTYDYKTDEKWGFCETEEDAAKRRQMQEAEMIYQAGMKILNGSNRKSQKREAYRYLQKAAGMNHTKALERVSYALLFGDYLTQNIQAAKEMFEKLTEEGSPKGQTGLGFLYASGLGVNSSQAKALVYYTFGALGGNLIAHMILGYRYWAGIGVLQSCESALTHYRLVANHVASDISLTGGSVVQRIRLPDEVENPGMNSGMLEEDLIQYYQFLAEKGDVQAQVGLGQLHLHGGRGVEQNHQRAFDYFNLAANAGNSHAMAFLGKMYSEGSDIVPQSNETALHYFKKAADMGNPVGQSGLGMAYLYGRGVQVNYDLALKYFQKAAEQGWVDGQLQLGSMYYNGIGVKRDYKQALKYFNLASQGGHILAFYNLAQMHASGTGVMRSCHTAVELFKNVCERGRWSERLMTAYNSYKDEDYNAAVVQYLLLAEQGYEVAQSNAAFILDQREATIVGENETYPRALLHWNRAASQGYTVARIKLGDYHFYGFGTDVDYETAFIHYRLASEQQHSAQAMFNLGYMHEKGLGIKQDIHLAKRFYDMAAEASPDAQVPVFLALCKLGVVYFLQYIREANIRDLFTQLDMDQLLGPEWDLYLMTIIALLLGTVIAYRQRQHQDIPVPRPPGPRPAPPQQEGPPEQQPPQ

Key:
[1] = target: POMC-C28F-HA; assay: co-IP; IP of HA-tagged substrate (proAVP (G57S)-HA or POMC-C28F-HA) from transfected SEL1L^L709P KI HEK293T cells; immunoblot, quantification normalised to the substrate
[2] = target: proAVP (G57S)-HA; assay: as above
[3] = target: SEL1L S658P (mouse knock-in) (mouse (endogenous in MEFs and P0 liver)) (UniProt Q9Z2G6); assay: co-IP; IP of endogenous SEL1L (1 ug anti-SEL1L, Protein A agarose, overnight 4 C) from MEF lysates (WT, Sel1L^S658P, Sel1L^L709P, Sel1L^P699T, Sel1L^ERCre KO); 150 mM NaCl, 25 mM Tris-HCl pH 7.5, 0.2% NP-40, 0.1% Triton X-100; immunoblot, prey band normalised to bait

| Binder | binding [1] | binding [2] | binding [3] |
| --- | --- | --- | --- |
| OS9 (human) (protein, UniProt Q13438 26-667) GGVGSLNLEELSEMRYGIEILPLPVMGGQSQSSDVVIVSSKYKQRYECRLPAGAIHFQREREEETPAYQGPGIPELLSPMRDAPCLLKTKDWWTYEFCYGRHIQQYHMEDSEIKGEVLYLGYYQSAFDWDDETAKASKQHRLKRYHSQTYGNGSKCDLNGRPREAEVRFLCDEGAGISGDYIDRVDEPLSCSYVLTIRTPRLCPHPLLRPPPSAAPQAILCHPSLQPEEYMAYVQRQADSKQYGDKIIEELQDLGPQVWSETKSGVAPQKMAGASPTKDDSKDSDFWKMLNEPEDQAPGGEEVPAEEQDPSPEAADSASGAPNDFQNNVQVKVIRSPADLIRFIEELKGGTKKGKPNIGQEQPVDDAAEVPQREPEKERGDPERQREMEEEEDEDEDEDEDEDERQLLGEFEKELEGILLPSDRDRLRSEVKAGMERELENIIQETEKELDPDGLKKESERDRAMLALTSTLNKLIKRLEEKQSPELVKKHKKKRVVPKKPPPSPQPTEEDPEHRVRVRVTKLRLGGPNQDLTVLEMKRENPQLKQIEGLVKELLEREGLTAAGKIEIKIVRPWAEGTEEGARWLTDEDTRNLKEIFFNILVPGAEEAQKERQRQKELESNYRRVWGSPGGEGTGDLDEFDF | binds | binds |  |
| SEL1L L709P (human, knock-in HEK293T) (protein, UniProt Q9UBV2-1 22-794) SSDEEGSQDESLDSKTTLTSDESVKDHTTAGRVVAGQIFLDSEESELESSIQEEEDSLKSQEGESVTEDISFLESPNPENKDYEEPKKVRKPALTAIEGTAHGEPCHFPFLFLDKEYDECTSDGREDGRLWCATTYDYKADEKWGFCETEEEAAKRRQMQEAEMMYQTGMKILNGSNKKSQKREAYRYLQKAASMNHTKALERVSYALLFGDYLPQNIQAAREMFEKLTEEGSPKGQTALGFLYASGLGVNSSQAKALVYYTFGALGGNLIAHMVLGYRYWAGIGVLQSCESALTHYRLVANHVASDISLTGGSVVQRIRLPDEVENPGMNSGMLEEDLIQYYQFLAEKGDVQAQVGLGQLHLHGGRGVEQNHQRAFDYFNLAANAGNSHAMAFLGKMYSEGSDIVPQSNETALHYFKKAADMGNPVGQSGLGMAYLYGRGVQVNYDLALKYFQKAAEQGWVDGQLQLGSMYYNGIGVKRDYKQALKYFNLASQGGHILAFYNLAQMHASGTGVMRSCHTAVELFKNVCERGRWSERLMTAYNSYKDGDYNAAVIQYLLLAEQGYEVAQSNAAFILDQREASIVGENETYPRALLHWNRAASQGYTVARIKLGDYHFYGFGTDVDYETAFIHYRLASEQQHSAQAMFNLGYMHEKGLGIKQDIHLAKRFYDMAAEASPDAQVPVFLAPCKLGVVYFLQYIRETNIRDMFTQLDMDQLLGPEWDLYLMTIIALLLGTVIAYRQRQHQDMPAPRPPGPRPAPPQQEGPPEQQPPQ | binds | binds |  |
| UBE2J1 (mouse) (enzyme, UniProt Q9JJZ4 1-318) METRYNLKSPAVKRLMKEAAELKDPTDHYHAQPLEDNLFEWHFTVRGPPDSDFDGGVYHGRIVLPPEYPMKPPSIILLTANGRFEVGKKICLSISGHHPETWQPSWSIRTALLAIIGFMPTKGEGAIGSLDYTPEERRALAKKSQDFCCEGCGSAMKDVLLPLKSGSGSSQADQEAKELARQISFKAEVNSSGKTIAESDLNQCFSLNDSQDDLPTTFQGATASTSYGAQNPSGAPLPQPTQPAPKNTSMSPRQRRAQQQSQRRPSTSPDVLQGQPPRAHHTEHGGSAMLIIILTLALAALIFRRIYLANEYIFDFEL |  |  | binds |
